# No constants are given. Whether binding was seen depends on the method and setting. Binding seen in cells or lysates may run through a third protein. Here binding means that the protein was enriched with, or labelled near, the bait; the list need not be complete.
# The chains behind the UniProt entries cited, without tags or fusion partners.
# UniProt P12270: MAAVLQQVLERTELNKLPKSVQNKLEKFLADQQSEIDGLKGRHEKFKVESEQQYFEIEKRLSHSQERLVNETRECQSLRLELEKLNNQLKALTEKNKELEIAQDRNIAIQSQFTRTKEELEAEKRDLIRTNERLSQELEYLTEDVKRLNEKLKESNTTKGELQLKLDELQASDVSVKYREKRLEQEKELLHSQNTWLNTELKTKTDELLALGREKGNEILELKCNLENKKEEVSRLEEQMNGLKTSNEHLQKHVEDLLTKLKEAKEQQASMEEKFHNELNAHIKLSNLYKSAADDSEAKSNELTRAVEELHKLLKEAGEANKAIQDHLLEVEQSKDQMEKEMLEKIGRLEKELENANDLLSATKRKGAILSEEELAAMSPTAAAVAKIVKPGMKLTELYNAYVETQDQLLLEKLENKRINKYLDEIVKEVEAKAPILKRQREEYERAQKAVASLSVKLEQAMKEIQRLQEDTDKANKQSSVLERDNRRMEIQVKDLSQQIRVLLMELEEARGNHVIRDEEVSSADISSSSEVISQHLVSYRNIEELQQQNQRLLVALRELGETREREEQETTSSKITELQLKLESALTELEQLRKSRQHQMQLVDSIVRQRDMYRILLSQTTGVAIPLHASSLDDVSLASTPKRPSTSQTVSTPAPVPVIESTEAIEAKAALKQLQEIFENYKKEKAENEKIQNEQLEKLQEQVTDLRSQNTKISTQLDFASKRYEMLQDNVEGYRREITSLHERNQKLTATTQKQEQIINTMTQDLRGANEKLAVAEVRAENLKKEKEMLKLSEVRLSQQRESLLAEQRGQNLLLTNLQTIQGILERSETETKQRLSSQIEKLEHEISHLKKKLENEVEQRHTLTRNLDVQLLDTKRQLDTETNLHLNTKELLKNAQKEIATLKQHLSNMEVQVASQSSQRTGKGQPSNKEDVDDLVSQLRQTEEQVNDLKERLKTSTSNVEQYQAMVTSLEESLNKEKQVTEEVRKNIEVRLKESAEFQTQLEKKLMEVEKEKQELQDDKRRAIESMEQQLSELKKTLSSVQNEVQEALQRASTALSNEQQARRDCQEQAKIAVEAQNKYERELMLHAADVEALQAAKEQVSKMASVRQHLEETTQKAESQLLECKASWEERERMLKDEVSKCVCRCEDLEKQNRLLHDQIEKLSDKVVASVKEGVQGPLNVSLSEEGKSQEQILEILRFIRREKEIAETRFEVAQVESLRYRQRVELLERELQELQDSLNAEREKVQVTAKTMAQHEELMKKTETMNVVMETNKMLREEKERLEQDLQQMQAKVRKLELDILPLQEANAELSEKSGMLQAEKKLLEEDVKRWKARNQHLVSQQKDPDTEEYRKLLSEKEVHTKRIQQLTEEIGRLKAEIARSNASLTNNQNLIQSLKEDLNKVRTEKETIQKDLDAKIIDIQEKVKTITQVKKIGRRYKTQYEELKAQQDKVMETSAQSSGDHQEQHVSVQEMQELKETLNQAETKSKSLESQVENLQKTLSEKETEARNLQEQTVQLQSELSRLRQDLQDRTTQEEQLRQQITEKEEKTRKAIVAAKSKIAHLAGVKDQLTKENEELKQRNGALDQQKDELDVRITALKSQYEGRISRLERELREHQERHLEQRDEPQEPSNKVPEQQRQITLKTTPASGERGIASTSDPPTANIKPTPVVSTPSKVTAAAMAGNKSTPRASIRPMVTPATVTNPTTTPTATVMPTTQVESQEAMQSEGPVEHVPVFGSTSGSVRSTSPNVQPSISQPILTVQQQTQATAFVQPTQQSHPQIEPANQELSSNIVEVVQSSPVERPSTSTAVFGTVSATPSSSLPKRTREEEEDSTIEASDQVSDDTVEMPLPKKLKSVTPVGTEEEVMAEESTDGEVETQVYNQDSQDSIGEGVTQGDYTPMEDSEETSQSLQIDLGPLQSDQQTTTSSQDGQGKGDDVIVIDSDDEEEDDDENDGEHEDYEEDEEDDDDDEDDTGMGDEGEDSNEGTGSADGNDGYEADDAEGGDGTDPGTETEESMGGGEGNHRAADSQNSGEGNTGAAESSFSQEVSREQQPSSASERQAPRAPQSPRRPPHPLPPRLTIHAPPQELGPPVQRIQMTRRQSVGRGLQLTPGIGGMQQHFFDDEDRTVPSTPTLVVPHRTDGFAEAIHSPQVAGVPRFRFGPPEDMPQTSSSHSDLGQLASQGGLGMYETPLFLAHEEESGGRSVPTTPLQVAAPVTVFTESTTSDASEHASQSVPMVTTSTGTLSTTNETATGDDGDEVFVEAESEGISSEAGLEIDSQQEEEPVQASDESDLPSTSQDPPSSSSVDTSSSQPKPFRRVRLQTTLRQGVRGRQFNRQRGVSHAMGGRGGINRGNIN
# UniProt O60318: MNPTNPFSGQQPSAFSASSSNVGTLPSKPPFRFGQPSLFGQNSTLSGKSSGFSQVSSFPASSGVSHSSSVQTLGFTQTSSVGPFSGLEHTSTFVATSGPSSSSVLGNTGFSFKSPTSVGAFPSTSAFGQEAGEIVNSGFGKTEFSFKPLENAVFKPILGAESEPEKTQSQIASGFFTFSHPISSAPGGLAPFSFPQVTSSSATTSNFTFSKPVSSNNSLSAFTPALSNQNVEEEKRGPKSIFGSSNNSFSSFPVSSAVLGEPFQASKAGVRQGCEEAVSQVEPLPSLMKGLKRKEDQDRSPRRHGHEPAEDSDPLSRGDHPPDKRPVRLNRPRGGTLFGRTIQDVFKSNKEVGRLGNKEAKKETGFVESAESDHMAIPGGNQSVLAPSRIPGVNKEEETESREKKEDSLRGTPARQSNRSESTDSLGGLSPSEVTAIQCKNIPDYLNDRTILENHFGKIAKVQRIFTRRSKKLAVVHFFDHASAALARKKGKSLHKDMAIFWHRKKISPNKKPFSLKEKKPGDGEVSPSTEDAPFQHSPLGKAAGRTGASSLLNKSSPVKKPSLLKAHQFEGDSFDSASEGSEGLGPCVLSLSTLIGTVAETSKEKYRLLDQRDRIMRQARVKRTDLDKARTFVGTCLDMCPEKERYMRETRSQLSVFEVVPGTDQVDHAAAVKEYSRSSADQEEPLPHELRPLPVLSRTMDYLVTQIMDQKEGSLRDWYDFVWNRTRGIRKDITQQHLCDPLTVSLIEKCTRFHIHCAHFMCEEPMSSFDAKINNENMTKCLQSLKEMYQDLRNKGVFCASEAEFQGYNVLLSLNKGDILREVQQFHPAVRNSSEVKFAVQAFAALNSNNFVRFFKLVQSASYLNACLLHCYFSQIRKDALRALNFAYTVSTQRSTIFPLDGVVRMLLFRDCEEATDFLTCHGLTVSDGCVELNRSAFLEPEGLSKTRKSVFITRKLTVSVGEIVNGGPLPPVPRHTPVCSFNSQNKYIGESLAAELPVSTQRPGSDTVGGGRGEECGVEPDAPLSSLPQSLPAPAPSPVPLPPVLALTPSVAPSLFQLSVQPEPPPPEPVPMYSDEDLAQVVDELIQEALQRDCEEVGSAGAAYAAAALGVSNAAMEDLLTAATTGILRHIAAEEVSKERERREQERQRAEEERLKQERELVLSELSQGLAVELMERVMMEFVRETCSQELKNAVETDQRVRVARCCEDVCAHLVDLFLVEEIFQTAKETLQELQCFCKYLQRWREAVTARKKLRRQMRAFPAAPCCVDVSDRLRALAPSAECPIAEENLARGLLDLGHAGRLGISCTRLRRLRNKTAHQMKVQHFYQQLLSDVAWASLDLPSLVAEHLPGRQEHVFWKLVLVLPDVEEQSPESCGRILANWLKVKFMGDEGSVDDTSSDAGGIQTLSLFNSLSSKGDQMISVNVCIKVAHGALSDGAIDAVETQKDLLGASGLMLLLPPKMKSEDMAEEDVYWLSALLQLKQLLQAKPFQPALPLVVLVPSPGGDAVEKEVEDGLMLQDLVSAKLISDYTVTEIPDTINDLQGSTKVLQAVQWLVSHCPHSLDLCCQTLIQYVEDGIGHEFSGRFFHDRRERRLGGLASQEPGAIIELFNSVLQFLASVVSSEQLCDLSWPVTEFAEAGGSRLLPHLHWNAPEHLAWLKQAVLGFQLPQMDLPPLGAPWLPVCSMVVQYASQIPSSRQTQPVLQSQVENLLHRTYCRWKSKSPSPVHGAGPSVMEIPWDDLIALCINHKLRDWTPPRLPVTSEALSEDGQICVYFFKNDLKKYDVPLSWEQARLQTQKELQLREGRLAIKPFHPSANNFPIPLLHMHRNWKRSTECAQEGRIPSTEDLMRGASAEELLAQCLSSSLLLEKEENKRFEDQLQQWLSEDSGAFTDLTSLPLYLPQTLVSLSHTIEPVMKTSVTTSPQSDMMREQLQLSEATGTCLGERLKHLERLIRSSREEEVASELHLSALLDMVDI
# Target: Tpr (translocated promoter region), endogenous (human (endogenous in U-2 OS)) (UniProt P12270)
# Assay: affinity purification with mass spectrometry; previously conducted label-free mass-spectrometry analysis without stable isotopes, in the same cell type (U-2 OS); bait and beads not told
substance,measurement,value
Minichromosome maintenance complex component 3 associated protein (from UniProt O60318 1-1980),binding,binds
